# Assay results: publication PMC5564724
# These are yes or no findings as the source states them, for the method shown. In cells and extracts the contact can be indirect. Binding calls can cover weak binding; strength is not graded here.
# Biological target: T1, p130cas (human (endogenous in HCT116)) (UniProt P56945)
# T1 sequence: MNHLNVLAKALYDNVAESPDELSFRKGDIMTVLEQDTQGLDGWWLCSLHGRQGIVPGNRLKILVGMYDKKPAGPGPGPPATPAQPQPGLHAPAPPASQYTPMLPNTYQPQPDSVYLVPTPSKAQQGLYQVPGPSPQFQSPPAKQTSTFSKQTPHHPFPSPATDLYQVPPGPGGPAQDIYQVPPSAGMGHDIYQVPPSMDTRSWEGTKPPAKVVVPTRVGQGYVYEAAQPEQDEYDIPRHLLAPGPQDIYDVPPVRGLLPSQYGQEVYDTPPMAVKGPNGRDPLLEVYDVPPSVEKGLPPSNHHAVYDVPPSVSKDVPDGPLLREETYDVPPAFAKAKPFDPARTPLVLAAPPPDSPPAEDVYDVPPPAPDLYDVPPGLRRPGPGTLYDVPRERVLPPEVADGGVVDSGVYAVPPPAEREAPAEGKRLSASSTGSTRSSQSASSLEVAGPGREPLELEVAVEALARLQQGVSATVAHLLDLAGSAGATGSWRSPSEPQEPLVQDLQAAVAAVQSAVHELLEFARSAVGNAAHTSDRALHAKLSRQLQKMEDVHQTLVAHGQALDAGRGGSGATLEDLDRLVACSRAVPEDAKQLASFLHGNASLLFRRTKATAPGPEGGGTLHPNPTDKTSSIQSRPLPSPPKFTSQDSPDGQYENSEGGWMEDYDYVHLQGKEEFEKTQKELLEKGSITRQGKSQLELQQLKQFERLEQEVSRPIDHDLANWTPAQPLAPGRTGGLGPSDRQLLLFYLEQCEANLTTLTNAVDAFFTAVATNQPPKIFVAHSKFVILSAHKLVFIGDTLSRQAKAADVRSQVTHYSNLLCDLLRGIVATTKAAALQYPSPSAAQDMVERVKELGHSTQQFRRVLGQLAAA
# Experiment: co-IP; HCT116 parental or paxillin Y88F knock-in cells, starved overnight and stimulated with 30 ng/ml PDGF-AA for one hour; Flag lysis buffer (50 mM Tris-HCl pH 7.5, 1 mM EDTA, 150 mM NaCl, 1% Triton X-100); lysates immunoprecipitated with anti-p130cas antibody, blotted for p85
substance,measurement,value
p85 regulatory subunit of PI3-Kinase (human (endogenous in HCT116)),binding,binds
